Data as given in PubChem BioAssay AID1259308 (NCATS, 2017)
In all, the deposit lists about 59,000 reagents; below is a random part of them. Of all reagents, about 1,510 (2.6%) are marked active. 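Calls use total luciferase alone and ignore viability, so some active siRNAs may act by altering cell number.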 Unmarked entries are inactive. The numbers tell different reagents against one gene apart.

- Assay: 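Knock-downs that increase output of a recombinant reporter protein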 (primary screen)
- Cell system: human HEK293 embryonic kidney cells stably expressing firefly luciferase (HEK-CMV-Luc2-Hygro)
- Knock-down reagent: single siRNA against human genes, 0.8 pmol siRNA per well
- Timing: 72 h
- Measured: 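Reporter luminescence and viable-cell signal on separate replicate plates, given as percent of non-targeting control and median/MAD z-scores, plus per-cell luciferase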
- Reading the numbers: total luciferase, z-score and total luciferase, % of control: higher = more reporter protein produced; luciferase per cell, z-score: higher = more reporter output per viable cell; viable cells, % of control: higher = more viable cells
- Rule for the call: 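An siRNA counts as active if its total luciferase robust z-score exceeds 3; genes with two or more such siRNAs out of three were retested with fresh siRNAs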
- Meaning of the calls: active = raised luciferase; inactive = no rise

| gene | reagent | total luciferase, z-score | total luciferase, % of control | luciferase per cell, z-score | viable cells, % of control |
| --- | --- | --- | --- | --- | --- |
| KHDC1 | 1 | 0.0465 | 82.8 | -0.158 | 96.5 |
| KHDC1 | 2 | -0.778 | 66.4 | -1.18 | 101 |
| KHDC1 | 3 | 1.11 | 104 | 0.195 | 110 |
| BNIP2 | 1 | 0.0446 | 82.8 | 0.0914 | 90.3 |
| BNIP2 | 2 | -1.43 | 53.4 | 0.608 | 50.9 |
| BNIP2 | 3 | -1.01 | 61.7 | -0.161 | 71.9 |
| PRPF31 | 1 | 0.186 | 85.6 | 0.428 | 85.4 |
| PRPF31 | 2 | 1.26 | 107 | 2.49 | 62 |
| PRPF31 | 3 | 1.01 | 102 | 1.55 | 75.7 |
| PPP2R5C | 1 | 2.52 | 132 | 2.19 | 82.9 |
| PPP2R5C | 2 | -0.00636 | 81.8 | -0.391 | 101 |
| PPP2R5C | 3 | 1.21 | 106 | 1.34 | 83.2 |
| HUS1B | 1 | -0.334 | 75.2 | -0.356 | 92.3 |
| HUS1B | 2 | -1.58 | 50.5 | -1.7 | 88.3 |
| HUS1B | 3 | 2.02 | 122 | 2.28 | 74.9 |
| LOC100289495 | 1 | -0.0884 | 80.1 | 0.502 | 78.4 |
| LOC100289495 | 2 | 2.94 | 140 | 3.94 | 55.6 |
| LOC100289495 | 3 | -0.219 | 77.5 | -0.469 | 98 |
| RBBP8 | 1 | 0.81 | 98 | 1.74 | 69.3 |
| RBBP8 | 2 | 0.106 | 84 | 0.159 | 90 |
| RBBP8 | 3 | 0.923 | 100 | 1.73 | 71 |
| LINC00239 | 1 | 3.06 (active) | 143 | 2.52 | 82.2 |
| LINC00239 | 2 | -1.49 | 52.2 | -1.6 | 89 |
| LINC00239 | 3 | -0.366 | 74.6 | -0.678 | 99.7 |
| PODNL1 | 1 | -0.743 | 67.1 | -0.697 | 90.1 |
| PODNL1 | 2 | -0.348 | 75 | 0.295 | 77.5 |
| PODNL1 | 3 | -1.76 | 46.9 | -1.67 | 81.4 |
| TBC1D22B | 1 | 1.2 | 106 | 1.49 | 79.8 |
| TBC1D22B | 2 | 0.701 | 95.8 | 0.999 | 82.3 |
| TBC1D22B | 3 | -1.3 | 56.1 | -0.665 | 74.7 |
| WFDC5 | 1 | 1.58 | 113 | 1.47 | 85.9 |
| WFDC5 | 2 | 0.99 | 102 | 1.51 | 76.2 |
| WFDC5 | 3 | 0.142 | 84.7 | 1.06 | 71.7 |
| PABPC3 | 1 | 0.604 | 93.9 | 0.103 | 102 |
| PABPC3 | 2 | 2.96 | 141 | 3.02 | 70.9 |
| PABPC3 | 3 | 0.386 | 89.6 | 0.257 | 93.5 |
| PUM2 | 1 | -0.298 | 76 | -0.698 | 102 |
| PUM2 | 2 | -0.404 | 73.8 | -0.745 | 100 |
| PUM2 | 3 | -0.151 | 78.9 | -0.747 | 107 |
| P4HA3 | 1 | -0.307 | 75.8 | -0.569 | 98.4 |
| P4HA3 | 2 | -2.03 | 41.4 | -2.42 | 87.5 |
| P4HA3 | 3 | -1.11 | 59.8 | -1.4 | 96.6 |
| GAD2 | 1 | 1.62 | 114 | 0.612 | 109 |
| GAD2 | 2 | -1.23 | 57.4 | -0.61 | 75.4 |
| GAD2 | 3 | 1.07 | 103 | 0.671 | 96.7 |
| RPS19 | 1 | -2.39 | 34.3 | -0.485 | 43.5 |
| RPS19 | 2 | -2.17 | 38.8 | -0.12 | 44.8 |
| RPS19 | 3 | -1.56 | 50.8 | -1.07 | 75.3 |
| NFAM1 | 1 | -0.127 | 79.4 | 0.14 | 85.5 |
| NFAM1 | 2 | 2.5 | 132 | 3.17 | 63.9 |
| NFAM1 | 3 | -0.746 | 67 | -1.43 | 109 |
| LIMS3 | 1 | 0.51 | 92 | -0.535 | 118 |
| LIMS3 | 2 | -0.621 | 69.5 | -0.802 | 96 |
| LIMS3 | 3 | -0.55 | 70.9 | -0.437 | 88.9 |
| MCFD2P1 | 1 | -0.722 | 67.5 | -1.62 | 116 |
| MCFD2P1 | 2 | -1.05 | 60.9 | 0.126 | 65.9 |
| MCFD2P1 | 3 | -0.13 | 79.3 | -0.501 | 101 |
